{"source": "paper PMC6925130", "about": "(Scientific Reports, 2019)", "experiment": "general procedure: Fmoc solid-phase peptide synthesis; HATU/DIPEA", "settings": "whole synthesis", "data": [{"substance": "HYNIC-L-P8RI", "values": [{"measurement": "final HPLC purity", "setting": "RP-HPLC, Kromasil C18", "value": 96.8, "unit": "%"}, {"measurement": "isolated yield", "setting": "overall", "value": 55, "unit": "% overall yield"}]}]}
